Experiments:
[1] = tested on: MCF-7 (human breast adenocarcinoma); assay: Cytotoxic assay, alamar blue, MCF-7; format: cell-based; conditions: MCF7, 72 h, read-out: IC50 MCF-7
Summary of the method: (§1)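 Cells from ATCC, mycoplasma-negative, grown in RPMI 1640 with 10% FBS at 37 °C and 5% CO2. Seeded at 0.7 × 10^5 cells/mL (adherent) or 0.3 × 10^6 cells/mL (suspension), then pre-incubated for 24 h. Test compound in DMSO added for 72 h; doxorubicin was the positive control and DMSO the vehicle control. Resazurin stock (0.312 mg/mL) added 4 h before the end. Absorbance read at 570/595 nm. IC50 taken from non-linear regression of % inhibition versus log concentration.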

[2] = tested on: HepG2 (human hepatocellular carcinoma); assay: Cytotoxic assay, alamar blue, HepG2; format: cell-based; conditions: HepG2, 72 h, read-out: IC50 HepG2
Summary of the method: as §1

COc1cccc2c1C(=O)c1c(O)c3c(c(O)c1C2=O)C[C@@](O)(C(=O)CO)C[C@@H]3O[C@H]1C[C@H](N)[C@H](O)[C@H](C)O1 [Doxorubicin]
IC50 [1]: 1.9 µM | IC50 [2]: 0.2 µM

— PMC6734327 (Heliyon, 2019)
